# Assay results taken from the supplement of paper PMC4604168 (melanoma cell lines).
# Some of the results follow. Single values are uncertain, as repeats are few or missing.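 Cells were imaged in 1,536-well plates, and nuclei stained with an antibody against cleaved PARP were counted against all DNA-stained nuclei to give the apoptosis fraction. Screening doses were chosen to leave most cells alive, and resting and induced cleaved-PARP levels differ strongly between cell lines.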
# Assays:
# Assay in all cases: cleaved PARP positive nuclei fraction relative to DMSO control; melanoma cells; higher = more apoptosis
# Conditions in all cases: library dose: low library concentration; 72 h
# 501Mel = test system: 501Mel
# A101D = test system: A101D
# A2058 = test system: A2058
# A375 = test system: A375
# C32 = test system: C32
# CBRC008 = test system: CBRC008 (line from a melanoma biopsy)
# CBRC014 = test system: CBRC014 (line from a melanoma biopsy)
# CBRC016 = test system: CBRC016 (line from a melanoma biopsy)
# CBRC017 = test system: CBRC017 (line from a melanoma biopsy)
# CBRC034 = test system: CBRC034 (line from a melanoma biopsy)
# COLO792 = test system: COLO792
# COLO800 = test system: COLO800
# COLO829 = test system: COLO829
# G361 = test system: G361
# IPC-298 = test system: IPC-298
# IST-MEL1 = test system: IST-MEL1
# LB2518-MEL = test system: LB2518-MEL
# LOXIMVI = test system: LOXIMVI
# MEL-HO = test system: MEL-HO
# CBRC013 = test system: CBRC013 (line from a melanoma biopsy)
Compound,cleaved PARP positive nuclei fraction (501Mel) [%],cleaved PARP positive nuclei fraction (A101D) [%],cleaved PARP positive nuclei fraction (A2058) [%],cleaved PARP positive nuclei fraction (A375) [%],cleaved PARP positive nuclei fraction (C32) [%],cleaved PARP positive nuclei fraction (CBRC008) [%],cleaved PARP positive nuclei fraction (CBRC014) [%],cleaved PARP positive nuclei fraction (CBRC016) [%],cleaved PARP positive nuclei fraction (CBRC017) [%],cleaved PARP positive nuclei fraction (CBRC034) [%],cleaved PARP positive nuclei fraction (COLO792) [%],cleaved PARP positive nuclei fraction (COLO800) [%],cleaved PARP positive nuclei fraction (COLO829) [%],cleaved PARP positive nuclei fraction (G361) [%],cleaved PARP positive nuclei fraction (IPC-298) [%],cleaved PARP positive nuclei fraction (IST-MEL1) [%],cleaved PARP positive nuclei fraction (LB2518-MEL) [%],cleaved PARP positive nuclei fraction (LOXIMVI) [%],cleaved PARP positive nuclei fraction (MEL-HO) [%],cleaved PARP positive nuclei fraction (CBRC013) [%]
"CN1CCN(c2ccc3nc(-c4c(N)c5c(F)cccc5[nH]c4=O)[nH]c3c2)CC1 [Dovitinib] + C=C(c1ccc(C(=O)O)cc1)c1cc2c(cc1C)C(C)(C)CCC2(C)C [Bexarotene] (first compound 0.1 µM, partner dose 2 µM)",133,90.4,289,253,90.4,149,112,88.3,151,97.2,80.5,59.7,162,50.9,91.9,202,259,101,228,
"C[C@@H](Oc1cc(-c2cnn(C3CCNCC3)c2)cnc1N)c1c(Cl)ccc(F)c1Cl [Crizotinib] + O=C(O)[C@@H]1[O][Sb](=[O])([O][Sb]2(=[O])[O][C@H]([C@H](O)CO)[C@H](O)[C@H](C(=O)O)[O]2)[O][C@H]([C@H](O)CO)[C@@H]1O [stibogluconate] (first compound 0.2 µM, partner dose 2 µM)",72,59.2,42.1,91,68.2,129,82.8,152,126,85.5,108,92.6,49.7,103,62.5,40.4,112,40.6,37.6,
"C[C@@H](Oc1cc(-c2cnn(C3CCNCC3)c2)cnc1N)c1c(Cl)ccc(F)c1Cl [Crizotinib] + NC(=O)Nc1cc(-c2cccc(F)c2)sc1C(=O)N[C@H]1CCCNC1 [AZD7762] (first compound 0.2 µM, partner dose 0.02 µM)",183,415,50.4,109,142,47.6,94.9,94.4,90.5,,93.8,117,73.8,72.4,92.9,54.1,36.1,74,67.9,90.7
"Cn1c(=O)n(-c2ccc(C(C)(C)C#N)cc2)c2c3cc(-c4cnc5ccccc5c4)ccc3ncc21 + CN1CCN(c2ccc3nc(-c4c(N)c5c(F)cccc5[nH]c4=O)[nH]c3c2)CC1 [Dovitinib] (first compound 0.004 µM, partner dose 0.1 µM)",117,109,61.9,222,74.5,31.1,96.9,60.3,88.7,59.5,83.1,99.4,87.5,111,89.3,191,112,128,159,
"CCCS(=O)(=O)Nc1ccc(F)c(C(=O)c2c[nH]c3ncc(Cl)cc23)c1F + Nc1cccc2c1CN(C1CCC(=O)NC1=O)C2=O [lenalidomide] (first compound 0.08 µM, partner dose 1 µM)",92.5,94,98.1,242,77,66.8,111,167,113,21.9,83.9,43.6,53.9,28.6,181,295,101,59.7,122,
"Cn1c(=O)n(-c2ccc(C(C)(C)C#N)cc2)c2c3cc(-c4cnc5ccccc5c4)ccc3ncc21 + Cn1c(Nc2ccc(C(F)(F)F)cc2)nc2cc(Oc3ccnc(-c4ncc(C(F)(F)F)[nH]4)c3)ccc21 [CHIR265] (first compound 0.004 µM, partner dose 0.08 µM)",2950,73.6,147,396,96.5,491,246,187,99.4,103,222,40.5,159,194,89.2,149,306,127,78,
"Cc1cc(Nc2cc(N3CCN(C)CC3)nc(/C=C/c3ccccc3)n2)n[nH]1 + Cc1cc(N2CCOCC2)cc2[nH]c(-c3c(NC[C@@H](O)c4cccc(Cl)c4)cc[nH]c3=O)nc12 [BMS536924] (first compound 0.04 µM, partner dose 0.2 µM)",108,44.8,95.9,145,131,258,107,107,123,,105,123,71.8,173,51.9,51.9,299,25.5,97.5,112
"CN1CCN(c2ccc3nc(-c4c(N)c5c(F)cccc5[nH]c4=O)[nH]c3c2)CC1 [Dovitinib] + C=CCNC1=C2C[C@@H](C)C[C@H](OC)[C@H](O)[C@@H](C)/C=C(\C)[C@H](OC(N)=O)[C@@H](OC)/C=C\C=C(/C)C(=O)NC(=CC1=O)C2=O [Tanespimycin] (first compound 0.1 µM, partner dose 0.002 µM)",640,176,51,189,208,171,181,43.2,96.4,31.5,80.7,86.9,95.2,110,179,65.9,130,28.8,105,
"Nc1ncn([C@H]2C[C@H](O)[C@@H](CO)O2)c(=O)n1 [decitabine] + Cc1cc(N2CCOCC2)cc2[nH]c(-c3c(NC[C@@H](O)c4cccc(Cl)c4)cc[nH]c3=O)nc12 [BMS536924] (first compound 0.1 µM, partner dose 0.2 µM)",91.4,120,204,78.8,56,335,72.3,75.4,79.2,,98.5,78.6,94.7,34.1,141,33.7,112,125,69.2,251
